Measurements from publication PMC12524113.
Results are given in words; binding and its absence hold for the method and conditions named. Binding seen in cells or lysates may run through a third protein. These calls come from enrichment with a bait or labelling near it, and not all partners need be listed. For some assays here: Where a sequence is shown, tags or fusion partners need not be part of it.

Sequences of proteins named here, by UniProt entry; tags and fusion partners are left off. Residues count along the entry.
UniProt P07766, residues 23-207: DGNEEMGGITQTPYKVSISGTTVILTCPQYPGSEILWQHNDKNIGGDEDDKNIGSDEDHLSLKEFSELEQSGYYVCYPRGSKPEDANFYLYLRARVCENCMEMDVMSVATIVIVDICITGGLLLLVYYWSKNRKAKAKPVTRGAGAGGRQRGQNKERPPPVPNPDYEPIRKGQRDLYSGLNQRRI
UniProt Q14517, residues 22-4588: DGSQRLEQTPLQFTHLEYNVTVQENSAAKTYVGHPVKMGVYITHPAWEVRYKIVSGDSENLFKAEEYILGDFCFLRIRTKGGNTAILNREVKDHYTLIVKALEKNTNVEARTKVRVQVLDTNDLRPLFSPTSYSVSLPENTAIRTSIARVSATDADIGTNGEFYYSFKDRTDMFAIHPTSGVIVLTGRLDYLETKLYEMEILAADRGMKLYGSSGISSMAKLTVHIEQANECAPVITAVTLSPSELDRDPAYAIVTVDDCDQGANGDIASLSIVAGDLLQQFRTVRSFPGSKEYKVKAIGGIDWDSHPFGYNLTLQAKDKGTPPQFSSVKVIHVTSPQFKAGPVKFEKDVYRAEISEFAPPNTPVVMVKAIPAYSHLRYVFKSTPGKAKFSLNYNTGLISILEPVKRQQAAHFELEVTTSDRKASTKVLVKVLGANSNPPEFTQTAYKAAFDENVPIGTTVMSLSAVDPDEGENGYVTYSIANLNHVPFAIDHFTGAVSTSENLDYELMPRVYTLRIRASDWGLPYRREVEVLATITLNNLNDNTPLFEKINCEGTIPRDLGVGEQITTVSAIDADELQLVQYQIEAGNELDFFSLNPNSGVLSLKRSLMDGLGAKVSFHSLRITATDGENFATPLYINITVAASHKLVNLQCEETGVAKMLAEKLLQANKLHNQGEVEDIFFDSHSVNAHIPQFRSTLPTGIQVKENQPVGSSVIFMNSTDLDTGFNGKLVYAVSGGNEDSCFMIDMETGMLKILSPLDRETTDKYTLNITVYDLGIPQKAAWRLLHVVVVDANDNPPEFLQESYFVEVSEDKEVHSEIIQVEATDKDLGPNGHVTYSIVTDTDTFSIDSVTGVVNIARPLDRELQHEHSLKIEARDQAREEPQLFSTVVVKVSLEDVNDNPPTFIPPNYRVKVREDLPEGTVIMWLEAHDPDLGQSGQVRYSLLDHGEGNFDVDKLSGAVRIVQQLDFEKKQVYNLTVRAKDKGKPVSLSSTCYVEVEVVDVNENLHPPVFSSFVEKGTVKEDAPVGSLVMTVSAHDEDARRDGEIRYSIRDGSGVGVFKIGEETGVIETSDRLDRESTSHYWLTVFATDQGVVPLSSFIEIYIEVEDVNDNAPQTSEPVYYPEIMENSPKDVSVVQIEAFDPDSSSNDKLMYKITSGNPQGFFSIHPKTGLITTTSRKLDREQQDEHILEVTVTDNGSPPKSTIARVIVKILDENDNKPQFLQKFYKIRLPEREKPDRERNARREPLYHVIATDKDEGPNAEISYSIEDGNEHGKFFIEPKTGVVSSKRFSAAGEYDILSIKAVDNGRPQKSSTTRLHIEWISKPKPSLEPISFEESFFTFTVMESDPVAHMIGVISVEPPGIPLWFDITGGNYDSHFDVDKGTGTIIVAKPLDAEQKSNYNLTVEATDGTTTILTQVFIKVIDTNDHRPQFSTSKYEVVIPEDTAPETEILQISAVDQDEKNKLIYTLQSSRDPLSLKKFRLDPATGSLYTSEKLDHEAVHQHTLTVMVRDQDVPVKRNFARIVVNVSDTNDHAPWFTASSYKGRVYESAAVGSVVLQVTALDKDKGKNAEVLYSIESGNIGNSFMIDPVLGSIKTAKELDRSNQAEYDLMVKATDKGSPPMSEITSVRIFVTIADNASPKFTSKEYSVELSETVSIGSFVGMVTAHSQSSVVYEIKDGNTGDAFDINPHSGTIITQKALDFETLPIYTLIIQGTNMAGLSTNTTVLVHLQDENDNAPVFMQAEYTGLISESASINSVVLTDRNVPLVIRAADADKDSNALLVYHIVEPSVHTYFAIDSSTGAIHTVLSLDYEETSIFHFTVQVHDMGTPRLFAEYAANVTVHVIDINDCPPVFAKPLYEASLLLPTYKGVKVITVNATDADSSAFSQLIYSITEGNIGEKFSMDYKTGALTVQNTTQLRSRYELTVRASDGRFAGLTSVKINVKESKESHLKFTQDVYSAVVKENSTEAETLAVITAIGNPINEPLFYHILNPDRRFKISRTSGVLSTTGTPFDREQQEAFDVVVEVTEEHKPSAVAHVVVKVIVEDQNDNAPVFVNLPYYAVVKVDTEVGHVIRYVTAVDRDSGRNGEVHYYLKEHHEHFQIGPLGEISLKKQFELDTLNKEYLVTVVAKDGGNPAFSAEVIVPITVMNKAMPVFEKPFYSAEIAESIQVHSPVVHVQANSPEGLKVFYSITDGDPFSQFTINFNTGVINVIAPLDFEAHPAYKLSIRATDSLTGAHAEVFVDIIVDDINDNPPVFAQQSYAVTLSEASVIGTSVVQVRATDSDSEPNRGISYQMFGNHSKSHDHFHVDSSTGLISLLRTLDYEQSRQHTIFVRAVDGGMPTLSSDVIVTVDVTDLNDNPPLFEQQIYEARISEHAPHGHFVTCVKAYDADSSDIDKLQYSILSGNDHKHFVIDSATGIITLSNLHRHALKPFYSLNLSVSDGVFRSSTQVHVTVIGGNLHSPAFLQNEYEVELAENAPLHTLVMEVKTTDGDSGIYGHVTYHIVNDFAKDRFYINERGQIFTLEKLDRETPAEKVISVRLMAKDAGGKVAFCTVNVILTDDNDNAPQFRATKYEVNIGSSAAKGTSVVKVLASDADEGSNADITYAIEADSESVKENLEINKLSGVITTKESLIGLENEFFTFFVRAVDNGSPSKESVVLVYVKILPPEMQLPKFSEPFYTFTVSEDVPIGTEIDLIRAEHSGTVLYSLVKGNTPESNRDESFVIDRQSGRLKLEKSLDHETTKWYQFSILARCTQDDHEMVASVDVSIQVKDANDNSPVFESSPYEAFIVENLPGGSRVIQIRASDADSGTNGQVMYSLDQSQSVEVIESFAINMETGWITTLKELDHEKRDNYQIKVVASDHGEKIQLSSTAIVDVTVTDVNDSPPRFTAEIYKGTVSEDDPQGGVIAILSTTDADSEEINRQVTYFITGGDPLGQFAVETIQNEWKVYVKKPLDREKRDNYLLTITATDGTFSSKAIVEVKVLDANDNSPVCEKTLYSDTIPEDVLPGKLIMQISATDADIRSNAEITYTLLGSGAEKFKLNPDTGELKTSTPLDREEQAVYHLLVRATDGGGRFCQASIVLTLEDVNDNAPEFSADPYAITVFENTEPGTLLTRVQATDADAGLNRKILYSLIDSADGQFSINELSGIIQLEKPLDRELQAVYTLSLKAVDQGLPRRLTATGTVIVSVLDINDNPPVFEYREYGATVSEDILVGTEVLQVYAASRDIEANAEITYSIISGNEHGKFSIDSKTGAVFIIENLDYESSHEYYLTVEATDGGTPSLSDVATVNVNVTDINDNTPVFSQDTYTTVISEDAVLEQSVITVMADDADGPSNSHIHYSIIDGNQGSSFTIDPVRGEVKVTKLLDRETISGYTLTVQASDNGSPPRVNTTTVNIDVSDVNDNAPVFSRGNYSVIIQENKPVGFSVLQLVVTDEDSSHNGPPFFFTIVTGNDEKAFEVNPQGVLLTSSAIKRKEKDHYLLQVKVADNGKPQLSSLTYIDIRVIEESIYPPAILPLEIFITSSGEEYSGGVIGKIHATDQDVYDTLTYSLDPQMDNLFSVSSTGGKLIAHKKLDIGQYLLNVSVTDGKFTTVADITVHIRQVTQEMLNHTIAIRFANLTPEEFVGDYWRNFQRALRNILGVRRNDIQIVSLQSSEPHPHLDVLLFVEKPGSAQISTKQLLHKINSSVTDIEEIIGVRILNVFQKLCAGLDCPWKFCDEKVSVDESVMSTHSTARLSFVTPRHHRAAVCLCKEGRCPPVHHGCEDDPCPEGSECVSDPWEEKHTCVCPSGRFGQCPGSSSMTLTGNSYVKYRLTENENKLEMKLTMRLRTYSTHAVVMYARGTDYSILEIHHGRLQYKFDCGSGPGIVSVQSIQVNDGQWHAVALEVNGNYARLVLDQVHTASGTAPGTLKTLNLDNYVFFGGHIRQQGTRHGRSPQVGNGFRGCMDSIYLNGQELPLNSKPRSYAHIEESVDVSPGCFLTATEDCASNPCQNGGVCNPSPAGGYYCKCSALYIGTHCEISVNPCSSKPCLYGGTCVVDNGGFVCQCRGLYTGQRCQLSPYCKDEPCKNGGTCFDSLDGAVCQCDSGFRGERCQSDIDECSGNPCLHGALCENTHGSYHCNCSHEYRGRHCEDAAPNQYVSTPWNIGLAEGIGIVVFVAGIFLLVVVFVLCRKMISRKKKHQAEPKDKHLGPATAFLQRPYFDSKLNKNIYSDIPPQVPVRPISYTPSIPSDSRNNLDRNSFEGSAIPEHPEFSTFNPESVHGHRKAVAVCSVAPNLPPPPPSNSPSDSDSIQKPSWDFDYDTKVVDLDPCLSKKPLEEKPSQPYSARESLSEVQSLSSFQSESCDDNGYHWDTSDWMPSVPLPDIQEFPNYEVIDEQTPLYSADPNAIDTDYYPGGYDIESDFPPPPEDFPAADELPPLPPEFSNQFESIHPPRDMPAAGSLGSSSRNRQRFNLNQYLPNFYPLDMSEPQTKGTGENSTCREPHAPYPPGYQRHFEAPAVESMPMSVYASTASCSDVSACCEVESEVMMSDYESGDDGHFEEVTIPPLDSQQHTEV
UniProt P43403: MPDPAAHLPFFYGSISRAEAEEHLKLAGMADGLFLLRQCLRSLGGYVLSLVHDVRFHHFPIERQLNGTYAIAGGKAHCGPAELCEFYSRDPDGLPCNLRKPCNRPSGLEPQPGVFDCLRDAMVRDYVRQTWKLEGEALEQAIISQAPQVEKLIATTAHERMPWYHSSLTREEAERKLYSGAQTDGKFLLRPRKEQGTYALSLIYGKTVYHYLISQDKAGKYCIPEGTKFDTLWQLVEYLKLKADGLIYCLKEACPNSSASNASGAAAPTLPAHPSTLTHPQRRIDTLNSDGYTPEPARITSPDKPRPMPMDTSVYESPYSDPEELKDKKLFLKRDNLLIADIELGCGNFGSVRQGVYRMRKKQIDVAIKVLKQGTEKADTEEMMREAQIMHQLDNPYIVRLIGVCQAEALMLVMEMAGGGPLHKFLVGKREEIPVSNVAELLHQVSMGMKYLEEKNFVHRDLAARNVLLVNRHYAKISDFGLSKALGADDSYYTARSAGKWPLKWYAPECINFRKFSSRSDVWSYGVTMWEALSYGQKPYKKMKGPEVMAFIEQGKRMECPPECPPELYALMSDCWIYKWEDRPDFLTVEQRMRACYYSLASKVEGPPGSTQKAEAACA

Legend:
[1] = target: T1, ubiquitin-associated and Src-homology 3 (SH3) domain containing A (UBASH3A), endogenous in Jurkat T cells (human (endogenous in Jurkat)) (UniProt P57075); assay: proximity labelling; Jurkat cells expressing FCRL3 or the EGFR-FCRL3 C140 aa chimera (or LV-empty controls); cells fixed, permeabilised with digitonin, anti-UBASH3A antibody, Protein A-TurboID and biotin; streptavidin pull-down and mass spectrometry
T1 sequence: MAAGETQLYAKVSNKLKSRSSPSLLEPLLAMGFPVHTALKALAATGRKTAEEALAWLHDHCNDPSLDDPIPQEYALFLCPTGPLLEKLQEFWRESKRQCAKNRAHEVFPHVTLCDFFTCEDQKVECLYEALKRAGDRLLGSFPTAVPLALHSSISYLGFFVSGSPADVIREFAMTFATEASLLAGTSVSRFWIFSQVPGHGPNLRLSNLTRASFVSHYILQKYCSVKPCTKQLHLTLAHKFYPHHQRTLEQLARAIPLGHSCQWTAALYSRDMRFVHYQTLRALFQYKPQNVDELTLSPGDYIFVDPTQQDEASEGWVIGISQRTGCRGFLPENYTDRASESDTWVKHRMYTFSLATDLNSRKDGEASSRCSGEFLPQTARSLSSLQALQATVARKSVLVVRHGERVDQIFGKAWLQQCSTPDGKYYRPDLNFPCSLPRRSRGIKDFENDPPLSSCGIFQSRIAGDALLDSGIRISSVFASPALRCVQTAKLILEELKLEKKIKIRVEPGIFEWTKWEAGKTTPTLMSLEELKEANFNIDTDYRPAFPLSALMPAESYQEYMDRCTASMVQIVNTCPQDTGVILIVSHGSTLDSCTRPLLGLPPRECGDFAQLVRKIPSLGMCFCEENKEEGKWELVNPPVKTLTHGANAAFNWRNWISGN

[2] = target: T2, FCRL3-3xFLAG (3xFLAG at the intracellular C terminus), in Jurkat T cells (human) (UniProt Q96P31); assay: affinity purification with mass spectrometry; Jurkat cells expressing FCRL3-3xFLAG versus untagged FCRL3; 2 mg lysate, anti-FLAG agarose beads overnight at 4°C; mass spectrometry
T2 sequence: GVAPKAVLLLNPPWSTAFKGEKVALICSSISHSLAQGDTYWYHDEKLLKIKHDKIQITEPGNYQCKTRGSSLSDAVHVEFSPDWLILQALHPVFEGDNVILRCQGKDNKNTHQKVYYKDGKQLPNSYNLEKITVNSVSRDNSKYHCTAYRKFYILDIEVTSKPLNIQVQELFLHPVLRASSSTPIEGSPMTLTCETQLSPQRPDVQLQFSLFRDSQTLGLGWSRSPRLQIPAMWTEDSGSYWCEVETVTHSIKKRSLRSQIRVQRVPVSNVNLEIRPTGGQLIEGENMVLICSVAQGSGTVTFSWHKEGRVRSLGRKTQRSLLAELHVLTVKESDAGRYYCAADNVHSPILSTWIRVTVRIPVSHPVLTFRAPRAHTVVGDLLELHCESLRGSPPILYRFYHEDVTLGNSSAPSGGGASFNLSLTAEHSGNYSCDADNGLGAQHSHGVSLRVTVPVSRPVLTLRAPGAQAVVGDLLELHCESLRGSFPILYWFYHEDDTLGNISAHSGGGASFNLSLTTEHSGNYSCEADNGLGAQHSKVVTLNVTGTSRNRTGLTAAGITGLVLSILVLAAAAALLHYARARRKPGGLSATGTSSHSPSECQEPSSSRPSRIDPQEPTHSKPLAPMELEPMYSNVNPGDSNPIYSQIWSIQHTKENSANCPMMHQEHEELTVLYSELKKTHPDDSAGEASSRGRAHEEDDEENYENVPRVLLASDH

[3] = target: T3, Fc receptor-like protein 3 (FCRL3), full-length, untagged, in Jurkat T cells (human) (UniProt Q96P31); assay: affinity purification with mass spectrometry; Jurkat cells expressing FCRL3 (full length or truncations) versus empty vector; 2 mg lysate (25 mM Tris-HCl pH 8.0, 250 mM NaCl, 0.2% NP-40), IP with rabbit polyclonal anti-FCRL3 antibody and protein A magnetic beads overnight at 4°C; mass spectrometry
T3 sequence: T2 sequence

[4] = target: T3, Fc receptor-like protein 3 (FCRL3), full-length, untagged, in Jurkat T cells (human); assay: proximity labelling; FCRL3-expressing versus empty-vector Jurkat cells; mouse monoclonal anti-FCRL3 antibody, digitonin permeabilisation, Protein A-TurboID and biotin (30 min, room temperature); streptavidin pull-down and mass spectrometry
[5] = target: T3, Fc receptor-like protein 3 (FCRL3), full-length, untagged, in Jurkat T cells (human); assay: affinity purification with mass spectrometry; Jurkat cells expressing FCRL3 (full length or truncations) versus empty vector; 2 mg lysate (25 mM Tris-HCl pH 8.0, 250 mM NaCl, 0.2% NP-40), IP with rabbit polyclonal anti-FCRL3 antibody and protein A magnetic beads overnight at 4°C; mass spectrometry; remark: listed apart in the source
[6] = target: T4, FCRL3 truncated in the intracellular domain, 93 aa tail (human) (UniProt Q96P31); assay: as above
T4 sequence: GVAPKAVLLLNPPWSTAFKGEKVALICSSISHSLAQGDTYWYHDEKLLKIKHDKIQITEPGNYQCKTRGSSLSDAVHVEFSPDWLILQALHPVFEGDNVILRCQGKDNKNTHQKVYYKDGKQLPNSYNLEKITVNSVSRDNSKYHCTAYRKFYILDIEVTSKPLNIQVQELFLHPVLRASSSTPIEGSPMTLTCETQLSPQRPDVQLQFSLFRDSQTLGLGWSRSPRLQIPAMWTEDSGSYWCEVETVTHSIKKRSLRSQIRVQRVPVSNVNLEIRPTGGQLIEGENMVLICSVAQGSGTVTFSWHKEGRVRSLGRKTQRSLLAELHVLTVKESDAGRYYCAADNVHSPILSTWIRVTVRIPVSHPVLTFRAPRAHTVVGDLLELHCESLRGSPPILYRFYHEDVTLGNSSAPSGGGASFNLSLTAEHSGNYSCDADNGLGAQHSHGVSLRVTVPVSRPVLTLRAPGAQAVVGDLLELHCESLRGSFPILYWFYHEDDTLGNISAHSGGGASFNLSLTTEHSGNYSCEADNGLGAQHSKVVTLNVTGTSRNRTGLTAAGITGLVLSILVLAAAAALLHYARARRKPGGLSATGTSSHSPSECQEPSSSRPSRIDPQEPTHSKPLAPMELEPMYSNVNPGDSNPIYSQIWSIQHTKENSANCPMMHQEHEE

[7] = target: T3, Fc receptor-like protein 3 (FCRL3), full-length, untagged, in Jurkat T cells (human); assay: proximity labelling; FCRL3-expressing versus empty-vector Jurkat cells; mouse monoclonal anti-FCRL3 antibody, digitonin permeabilisation, Protein A-TurboID and biotin (30 min, room temperature); streptavidin pull-down and mass spectrometry; remark: listed apart in the source

CD3ε, endogenous in Jurkat T cells (from UniProt P07766 23-207)
binding [1]: binds | binding [2]: binds | binding [3]: binds

FAT atypical cadherin 1 (FAT1), endogenous in Jurkat T cells (from UniProt Q14517 22-4588)
binding [4]: binds | binding [2]: binds | binding [3]: binds

UBASH3B, endogenous in Jurkat T cells (from UniProt Q8TF42 1-649) (enzyme)
binding [1]: binds

ZAP70, endogenous in Jurkat T cells (from UniProt P43403 1-619) (enzyme)
binding [1]: binds

B1: Fc receptor-like protein 3 (FCRL3), full-length, untagged, in Jurkat T cells (receptor, UniProt Q96P31 18-734)
chain: T2 sequence
binding [1]: binds

B2: ubiquitin-associated and Src-homology 3 (SH3) domain containing A (UBASH3A), endogenous in Jurkat T cells (enzyme, UniProt P57075 1-661)
chain: T1 sequence
binding [2]: binds | binding [5]: binds | binding [6]: binds | binding [7]: binds

B3: SHP2-interacting adaptor protein 1, endogenous in Jurkat T cells (protein, UniProt Q9Y3P8 25-196)
chain: DNCTDLLALGIPSITQAWGLWVLLGAVTLLFLISLAAHLSQWTRGRSRSHPGQGRSGESVEEVPLYGNLHYLQTGRLSQDPEPDQQDPTLGGPARAAEEVMCYTSLQLRPPQGRIPGPGTPVKYSEVVLDSEPKSQASGPEPELYASVCAQTRRARASFPDQAYANSQPAAS
binding [7]: binds
